Drawing on PubChem BioAssay AID192 (DTP/NCI, 2004), this text covers survivor count and T/C for 16 molecules.

For this assay, the system named is BDF1 mice, B16 melanoma ip, median survival T/C. Briefly: NCI In Vivo Anticancer Drug Screen. Data for tumor model B16 Melanoma (intraperitoneal) in B6D2F1 (BDF1) mice. The settings on record: T/C endpoint: median survival time, higher T/C = longer survival. An outline of the steps:
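Tumor-bearing mice received test compound or vehicle. Survival or tumor size was then measured in both groups. The treated-group figure was divided by the control-group figure.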

Where [1] appears, read: dose: 400.0 mg/kg/injection, schedule: Q01DX009 (ip), vehicle: Klucel (hydroxypropylcellulose) (HPC).
The mark [2] stands for this setting: dose: 12.5 mg/kg/injection, schedule: Q01DX009 (ip), vehicle: Klucel (hydroxypropylcellulose) (HPC).
[3] abbreviates: dose: 25.0 mg/kg/injection, schedule: Q01DX009 (ip), vehicle: Klucel (hydroxypropylcellulose) (HPC).
[4] abbreviates: dose: 50.0 mg/kg/injection, schedule: Q01DX009 (ip), vehicle: Klucel (hydroxypropylcellulose) (HPC).

The list shows only some results of the screen, not a fair sample: it is rich in T/C values a quarter to a half above the control, in often repeated tests (any T/C) and in doses without a T/C. Other doses and runs of a compound stand elsewhere. T/C is the treated group as % of the vehicle group. Some entries give survivors of the animals treated and no T/C: the source holds a T/C of zero for them, seemingly a mark for toxic or unscored doses. Some survivor counts are full or nearly so, which does not show that the dose was tolerated: the source hardly ever lists a survival T/C far under the control, and the zero likely stands for such cases as well. Counts of survivors are from the toxicity check (mostly the fifth day) where no day follows; animals may have died later. Schedules are NCI's codes, read here as Q, the interval in days (D) or hours (H), X, the number of doses. Some entries hold several experiments; the results are listed from low to high. Where survival is the endpoint, the PubChem record calls one and a half times the control and up active, and a quarter to a half above the control has no call in these data; cut-offs in other NCI protocols can differ. Some T/C values are followed by the survivors on the day toxicity was checked, most often the fifth; where none is given, no animal had died by that day.

For the molecule `Cc1cc(Cc2cc(C)cc(C(C)(C)C)c2O)c(O)c(Cc2cc(C)cc(C(C)(C)C)c2O)c1`, the survivor count (dose: 400.0 mg/kg/injection, schedule: Q04DX003 (ip), vehicle: gum acacia) is reported as 10 of 10.
Regarding `CC(/C=N/N=C(N)N)=N\NC(N)=S`, the survivor count (dose: 200.0 mg/kg/injection, schedule: Q01DX009 (ip), vehicle: distilled water + Tween-80) was 10 of 10 and the survivor count (dose: 400.0 mg/kg/injection, schedule: Q01DX009 (ip), vehicle: distilled water + Tween-80) is recorded as 0 of 10.
Turning to `Nc1ncnc2c1ncn2C1OCC(O)C1O` (configuration not stated), for the setting “dose: 100.0 mg/kg/injection, schedule: Q01DX009 (ip), vehicle: saline”, the survivor count is listed as 10 of 10.
In the case of `COc1ccc(CC2C(=O)NC(C)C(=O)N(C)C3Cc4ccc(cc4)Oc4cc(ccc4O)CC(C(=O)NC(C)C(=O)NC(C)C(=O)N2C)N(C)C3=O)cc1` (configuration not stated), the T/C runs as follows: (dose: 0.25 mg/kg/injection, schedule: Q01DX009 (ip), vehicle: saline with Tween-80) 134 % of control; (dose: 0.5 mg/kg/injection, schedule: Q01DX009 (ip), vehicle: saline with Tween-80) 142 % of control; (dose: 1.0 mg/kg/injection, schedule: Q01DX009 (ip), vehicle: saline with Tween-80) 133 and 147 % of control; (dose: 2.0 mg/kg/injection, schedule: Q01DX009 (ip), vehicle: saline with Tween-80) 142 % of control; (dose: 4.0 mg/kg/injection, schedule: Q01DX009 (ip), vehicle: saline with Tween-80) 141 % of control; (dose: 8.0 mg/kg/injection, schedule: Q01DX009 (ip), vehicle: saline with Tween-80) 145 % of control [7 of 10 alive].
On to `CCCC(C(=O)OCCN(CC)CC)(c1ccccc1)c1ccccc1`, for which, for the setting “dose: 50.0 mg/kg/injection, schedule: Q01DX009 (ip), vehicle: saline”, the survivor count was 10 of 10.
As to `O=C(OC1COC(n2c(=O)oc3ccc(F)cc32)C(OC(=O)c2ccccc2)C1OC(=O)c1ccccc1)c1ccccc1` (configuration not stated), under setting [1], the survivor count is recorded as 6 of 6.
On to `Clc1cc(CBr)c(Cl)c(Cl)c1CBr`, for which the survivor count (dose: 6.25 mg/kg/injection, schedule: Q01DX009 (ip), vehicle: Klucel (hydroxypropylcellulose) (HPC)) was 10 of 10; the survivor count under setting [2] is on record as 8 of 10; the survivor count under setting [3] is reported as 10 of 10; the survivor count under setting [4] is listed as 0 of 10.
Consider `Cc1cc(C)c(NC(=O)Nc2ccc(Cl)cc2)c(C)c1`, for which the survivor count under setting [1] is recorded as 9 of 10.
`CC[C@@]1(O)C(=O)OCc2c1cc1n(c2=O)Cc2cc3cc(O)ccc3nc2-1`: the survivor count is 8 of 10 (dose: 3.13 mg/kg/injection, schedule: Q01DX009 (ip), vehicle: other) and 6 of 10 (dose: 6.25 mg/kg/injection, schedule: Q01DX009 (ip), vehicle: other).
For `CC1(C)N=C(N)N=C(N)N1c1ccc(Cl)c(Cl)c1`, the survivor count under setting [2] was 9 of 10, the survivor count under setting [3] is reported as 9 of 10 and the survivor count under setting [4] is 8 of 10.
Regarding `CN1CCN(C2=C(Cl)C(=O)c3ccccc3C2=O)CC1`, the survivor count is given as 10 of 10 (dose: 5.0 mg/kg/injection, schedule: Q01DX009 (ip), vehicle: saline) and 10 of 10 (dose: 10.0 mg/kg/injection, schedule: Q01DX009 (ip), vehicle: saline).
`O=Nc1ccc2cc(O)ccc2c1O`: the survivor count is 10 of 10 (dose: 3.12 mg/kg/injection, schedule: Q01DX009 (ip), vehicle: Klucel (hydroxypropylcellulose) (HPC)); 9 of 10 (dose: 18.0 mg/kg/injection, schedule: Q01DX009 (ip), vehicle: Klucel (hydroxypropylcellulose) (HPC)); 10 of 10 (dose: 28.0 mg/kg/injection, schedule: Q01DX009 (ip), vehicle: Klucel (hydroxypropylcellulose) (HPC)); 1 of 10 (dose: 40.0 mg/kg/injection, schedule: Q01DX009 (ip), vehicle: Klucel (hydroxypropylcellulose) (HPC)).
`COc1cccc2c1C(=O)c1c(O)c3c(c(O)c1C2=O)C[C@@](O)(/C(C)=N\NC=O)C[C@@H]3OC1CC(N)C(O)C(C)O1` (some centres not stated): where the note is “dose: 24.0 mg/kg/injection, schedule: Q01DX009 (ip), vehicle: saline”, the survivor count was 10 of 10.
Regarding `Cc1c(N)nc(C(CC(N)=O)NCC(N)C(N)=O)nc1C(=O)NC(C(=O)NC(C)C(O)CC(=O)NC(C(=O)NC(OC1OC(C)C(N)C(O)C1O)C(O)c1nc(-c2nc(C(=O)NCCCC(N)CC(=O)NCCCNCCCCN)cs2)cs1)C(C)O)C(OC1OC(CO)C(O)C(O)C1OC1OC(CO)C(O)C(OC(N)=O)C1O)c1cnc[nH]1` (configuration not stated), the T/C (dose: 0.4 mg/kg/injection, schedule: Q01DX009 (ip), vehicle: saline) was 135 % of control [9 of 10 alive]. Further, the survivor count (dose: 3.2 mg/kg/injection, schedule: Q01DX009 (ip), vehicle: saline) is 9 of 10.
`C/C(C/C(C)=N/O)=N/O.C/C(C/C(C)=N/O)=N\O.[Cl][Rh][Cl]`: the survivor count (dose: 25.0 mg/kg/injection, schedule: Q01DX009 (ip), vehicle: saline with Tween-80) is listed as 7 of 8.
In the case of `O=C(O)CCCc1ccc(N(CCCl)CCCl)cc1`, the survivor count by setting is: (dose: 0.18 mg/kg/injection, schedule: Q01DX009 (ip), vehicle: Klucel (hydroxypropylcellulose) (HPC)) 12 of 12; (dose: 0.75 mg/kg/injection, schedule: Q01DX009 (ip), vehicle: Klucel (hydroxypropylcellulose) (HPC)) 12 of 12; (dose: 16.0 mg/kg/injection, schedule: Q01DX009 (ip), vehicle: Klucel (hydroxypropylcellulose) (HPC)) 7 of 8 and 10 of 10; (dose: 16.0 mg/kg/injection, schedule: Q01DX017 (ip), vehicle: saline) 10 of 10; (dose: 24.0 mg/kg/injection, schedule: Q01DX009 (ip), vehicle: Klucel (hydroxypropylcellulose) (HPC)) 2 of 10; (dose: 32.0 mg/kg/injection, schedule: Q01DX009 (ip), vehicle: saline) 7 of 10. The survivor count is given as 10 of 10 (dose: 32.0 mg/kg/injection, schedule: Q01DX017 (ip), vehicle: saline); 0 of 10 (dose: 48.0 mg/kg/injection, schedule: Q01DX009 (ip), vehicle: Klucel (hydroxypropylcellulose) (HPC)); 4 of 10 (dose: 64.0 mg/kg/injection, schedule: Q01DX001 (ip), vehicle: saline); 0 of 10 (dose: 64.0 mg/kg/injection, schedule: Q01DX009 (ip), vehicle: saline); 3 of 10 (dose: 64.0 mg/kg/injection, schedule: Q04DX003 (ip), vehicle: saline); 6 of 10 (dose: 64.0 mg/kg/injection, schedule: Q04DX005 (ip), vehicle: saline). In addition, the survivor count (dose: 128.0 mg/kg/injection, schedule: Q01DX001 (ip), vehicle: saline) was 0 of 10; the survivor count (dose: 128.0 mg/kg/injection, schedule: Q04DX003 (ip), vehicle: saline) is on record as 0 of 10; the survivor count (dose: 128.0 mg/kg/injection, schedule: Q04DX005 (ip), vehicle: saline) is 0 of 10. In addition, the T/C was 133 % of control (dose: 8.0 mg/kg/injection, schedule: Q01DX009 (ip), vehicle: Klucel (hydroxypropylcellulose) (HPC)); 142 % of control (dose: 8.0 mg/kg/injection, schedule: Q01DX017 (ip), vehicle: saline); 126 % of control (dose: 8.0 mg/kg/injection, schedule: Q04DX005 (ip), vehicle: saline); 128 % of control (dose: 12.5 mg/kg/injection, schedule: Q01DX009 (ip), vehicle: saline); 144 % of control (dose: 15.0 mg/kg/injection, schedule: Q01DX009 (ip), vehicle: Klucel (hydroxypropylcellulose) (HPC)); 135 % of control (dose: 16.0 mg/kg/injection, schedule: Q04DX005 (ip), vehicle: saline). For the same molecule, the T/C was 140 % of control (dose: 25.0 mg/kg/injection, schedule: Q01DX009 (ip), vehicle: saline); 131 % of control [9 of 10 alive] (dose: 32.0 mg/kg/injection, schedule: Q01DX001 (ip), vehicle: saline); 140 % of control [8 of 10 alive] (dose: 32.0 mg/kg/injection, schedule: Q04DX003 (ip), vehicle: saline); 147 % of control [9 of 10 alive] (dose: 32.0 mg/kg/injection, schedule: Q04DX005 (ip), vehicle: saline).
